Results deposited as PubChem BioAssay AID602196 (INSERM, 2012).
The whole screen tested about 23,000 reagents; this is a random part of them. 455 of all reagents (2%) were called active. 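Active includes both protection and sensitisation; some change values fall well beyond the stated -50 to +50 range.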 Reagents against one gene are numbered here. Reagent sequences are not shown. Not given: the amount of reagent.

Purpose: 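Modifiers of cisplatin sensitivity in A549 cells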
System: human A549 lung cancer cells
Knock-down reagent: siRNA pair against human genes
Time to read-out: 48 h transfection before cisplatin; time from cisplatin to read-out not stated
Treatment: cisplatin at a dose killing half of control-siRNA cells; exact dose and duration not given
Measured: 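Cisplatin cell death as a shift from the 50% death seen with control siRNA; siRNAs toxic or growth-blocking alone scored 0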
Scale: two-siRNA summed score (-2 to +2): higher = both siRNAs protect from cisplatin killing; -2 means both sensitise; mean protection from cisplatin (shift in death) and protection from cisplatin (shift in death), siRNA C and protection from cisplatin (shift in death), siRNA D: higher = protection from cisplatin killing
Active means: 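siRNAs harmful alone (LDH or WST-1) get 0; others get +1 for less and -1 for more cisplatin killing; genes are active when the two siRNAs give the same sign, summing to ±2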
Meaning of the calls: active = both siRNAs shift cisplatin killing the same way; inactive = no consistent shift, or siRNA harmful alone

target | reagent no. | two-siRNA summed score (-2 to +2) | mean protection from cisplatin (shift in death) (%) | protection from cisplatin (shift in death), siRNA C (%) | protection from cisplatin (shift in death), siRNA D (%) | Call
LOC283226 | 1 | 0 | 7.1 | 11.9 | 2.3 | inactive
SERBP1 | 1 | 0 | -1.6 | 2.5 | -5.6 | inactive
SERBP1 | 2 | 0 | 13.7 | 8.1 | 19.3 | inactive
LALBA | 1 | 0 | -5.5 | -8.5 | -2.5 | inactive
LARS2 | 1 | -1 | -20.9 | -19.6 | -22.1 | inactive
CENPVL3 | 1 | 0 | -2.7 | 5.3 | -10.7 | inactive
SERPINB9 | 1 | 0 | 4 | -25.7 | 33.7 | inactive
LOC441057 | 1 | 1 | 7.7 | 19.3 | -3.9 | inactive
EPB41L4A-AS1 | 1 | 0 | -0.3 | -5.8 | 5.2 | inactive
CTBP1 | 1 | 0 | -6.4 | -17.5 | 4.7 | inactive
CTBP1 | 2 | 0 | 0.5 | -3.6 | 4.6 | inactive
OR8S1 | 1 | 0 | 1.6 | 3 | 0.2 | inactive
LOC442437 | 1 | 0 | 8.4 | 6.3 | 10.4 | inactive
LOC401020 | 1 | 0 | 9.2 | 14.9 | 3.5 | inactive
LOC400093 | 1 | 0 | -9.5 | -6.5 | -12.5 | inactive
ITGA3 | 1 | 0 | -12.4 | -4.3 | -20.5 | inactive
LOC441054 | 1 | 0 | 10.1 | 16 | 4.3 | inactive
KCNH4 | 1 | 0 | -4.8 | 2.8 | -12.4 | inactive
ZNF528 | 1 | 0 | 0.1 | 0.1 | 0.1 | inactive
LOC440378 | 1 | 0 | 8.3 | 10.1 | 6.6 | inactive
PGAP4 | 1 | 0 | 5.7 | 11.9 | -0.5 | inactive
ZNF592 | 1 | 0 | 7.7 | 13.2 | 2.2 | inactive
CFL1 | 1 | 0 | 0.8 | -6.9 | 8.6 | inactive
TSBP1 | 1 | 0 | 10.2 | 11.1 | 9.3 | inactive
RWDD3 | 1 | 0 | 1.2 | -7.4 | 9.9 | inactive
HAMP | 1 | 0 | 0.6 | 3.1 | -2 | inactive
SLC27A5 | 1 | 0 | 8.8 | 13.2 | 4.4 | inactive
NKX2-1 | 1 | 0 | -1 | 2.6 | -4.5 | inactive
SUPT3H | 1 | 0 | -10.1 | -10.9 | -9.3 | inactive
LOC389204 | 1 | 0 | -11.4 | -17.3 | -5.6 | inactive
LOC392358 | 1 | 2 | 15.2 | 18.8 | 11.6 | active
IFT25 | 1 | 0 | 2 | -9.5 | 13.6 | inactive
NGEF | 1 | -1 | -15 | -3 | -26.9 | inactive
LOC440156 | 1 | 0 | 9.8 | 6.4 | 13.2 | inactive
TFPI | 1 | 0 | 4 | 12.5 | -4.5 | inactive
IGSF22 | 1 | 0 | 4.2 | 12.5 | -4 | inactive
VEGFD | 1 | 0 | 17.6 | 15.3 | 20 | inactive
GABRG3 | 1 | 1 | 11.8 | 19.3 | 4.3 | inactive
UMPS | 1 | 0 | 0.6 | -4.7 | 6 | inactive
FOXP1 | 1 | 0 | 10.9 | 23.7 | -1.8 | inactive
ADPRH | 1 | 0 | -1.2 | -10.1 | 7.8 | inactive
RACK1 | 1 | 0 | -5.7 | 2.6 | -14.1 | inactive
ACOXL | 1 | 0 | 0 | 4.3 | -4.4 | inactive
LSMEM1 | 1 | 1 | 16.5 | 9 | 24.1 | inactive
FKBP14 | 1 | -1 | -19.6 | -17.8 | -21.4 | inactive
CAPN10 | 1 | 0 | 6.3 | 13.7 | -1.1 | inactive
FLNA | 1 | 0 | -3.6 | -11.2 | 4 | inactive
KIRREL3-AS3 | 1 | 0 | 5.7 | 14.6 | -3.2 | inactive
KRTCAP2 | 1 | 0 | -8.5 | 1.2 | -18.2 | inactive
KLHL23 | 1 | 0 | 8 | 11 | 5 | inactive
RUNX1T1 | 1 | 0 | -6.4 | -14.6 | 1.7 | inactive
RPL6 | 1 | 0 | 21.4 | 19 | 23.8 | inactive
ANKRD30A | 1 | 0 | -2.9 | 2.1 | -8 | inactive
LY6E | 1 | 0 | 17.6 | 37.9 | -2.8 | inactive
FLJ46838 (retired record) | 1 | 1 | 12.1 | 3.2 | 21 | inactive
CYB561 | 1 | 0 | 2.4 | 6.8 | -2 | inactive
CYB561 | 2 | 0 | 8.6 | 14.7 | 2.6 | inactive

Only “protection from cisplatin (shift in death), siRNA C (%)”, for 4 of the entries above:
LSMEM1	9
FKBP14	-17.8
CAPN10	13.7
FLNA	-11.2
